Patent publication US6605639B1, “Ligands of nuclear receptor” (Nuclear Receptor Research, Ltd., priority 1998, dated 2003)
“And” between values parts separate entries of the source, which are not always exact repeats. Equal values may be shown once.

How the values were obtained:
[1] = test system: rats with adjuvant arthritis; assay: Therapeutic effect on rat adjuvant arthritis; type: in vivo; details: 7 times
Experimental: Rats with arthritis employed in Experiment 1 were individuals which suffered from serious arthritis caused by the injection of an adjuvant 45 days ago and thus crawled on forelegs since they could not bend hind legs. Drug effects were evaluated by observing walking, observation with the naked eye of the severity of inflammation in hind legs and the volume of swelling in legs. To 19 SD male rats (weighing about 300 g), Freund's […] adjuvant containing dead tubercle bacillus Aoyama B strain was subcutaneously injected into the tail root to induce arthritis in hind legs. Compound-6 was suspended in a tragacanth gum solution and orally administered at a ratio of 0.5 ml/100 g body weight. Compound-6 was administered to 3 groups including the high-dose model (HM; 50 mg/kg), the medium-dose model (MM; 25 mg/kg) and the low-dose model (LM; 10 mg/kg). Administration was made once a day in morning continuously 7 times. During this period, the hind leg volume was measured at the initiation of the experiment and 2, 4 and 7 days thereafter. The volume change was calculated by referring the volume at the initiation of the experiment as to 100%. On the 7th day, the inflammation conditions in hind legs were evaluated in 5 grades with the naked eye.
Immediately after administration, the three Compound-6 groups were combined and divided again depending on the occurrence of arthritis (i.e., positive and negative groups). Then the data were compared with the data of the control group.

DOCA hypertensive rats = assay: Aneurysm formation in the mesenteric artery of DOCA hypertensive rats; type: in vivo, rat; details: 7 weeks; for Arteriole count, Avg: 6 rats; for Arteriole count, individual rats: counted thrice, average
Description: The compounds of the present invention show an effect of inhibiting periarteritis nodosa in a malignant hypertension model rat in which periarteritis nodosa arises in the mesenteric artery and progresses into aneurysm. Among aneurysms, those formed in the mesenteric artery can be treated quantitatively. Thus, the mesenteric artery was taken out and fixed with formalin. Then it was fat-stained and arterioles and aneurysms were counted thrice and the average aneurysm count per arteriole was calculated. To rats with renal hypofunction due to the excision of one kidney, […] saline, having a somewhat higher osmotic pressure than plasma, was given as drinking water and 10 mg/kg of deoxycorticosterone acetate (DOCA) (a mineral corticoid) was subcutaneously administered at intervals of 1 week. Twenty-four male Wistar rats were divided into 4 groups at random. After taking out the left kidney, each animal was allowed to stand and the operative wound was fused. […] The experiment was carried out for 7 weeks. Since the initiation of the experiment, the feed intake, water intake, urine, body weight and blood pressure of each group were measured once every three days.
The average blood pressure exceeded 180 mmHg in the 3rd week and attained 200 mmHg in the 4th week. […] In the 7th week, each animal was dissected and the mesenteric artery was taken out. After treating with formalin, the artery was fat-stained and aneurysms were counted. […] In the high-dose Compound-6 group, the average aneurysm count per arteriole was lowered to 0.27±0.05.
Arterioles and nodes in the mesenteric artery were each counted thrice and the average was calculated.
a) Appearance frequency=node count/arteriole count×100 (%).

`COc1c(Cl)c(C)c(C=O)c(O)c1C/C=C(C)/C=C/[C@@]1(C)[C@H](C)CCC(=O)[C@@H]1C` [Compound-6, 4-O-methylASC] was tested, and the Body weight change ([1]; HM group, 50 mg/kg oral once a day) was 2.2 g/rat, the Body weight change ([1]; LM group, 10 mg/kg oral once a day) was 2.0 g/rat and the Body weight change ([1]; MM group, 25 mg/kg oral once a day) was 3.9 g/rat. The “Arteriole count, Avg” value (DOCA hypertensive rats; 10 mg/kg/day) was 12.72, the “Arteriole count, individual rats” value (DOCA hypertensive rats; 10 mg/kg/day) was 9.00 and 11.33 and 11.00 and 14.67 and 17.00 and 13.33 and the “Arteriole count, Avg” value (DOCA hypertensive rats; 40 mg/kg/day) was 12.78. For the same compound, the “Arteriole count, individual rats” value (DOCA hypertensive rats; 40 mg/kg/day) was 12.67 and 10.33 and 12.00 and 13.67 and 13.00 and 15.00.
